What follows are compounds tested against T1, Aromatase (Rattus norvegicus, UniProt P22443).
T1 sequence (P22443 whole entry): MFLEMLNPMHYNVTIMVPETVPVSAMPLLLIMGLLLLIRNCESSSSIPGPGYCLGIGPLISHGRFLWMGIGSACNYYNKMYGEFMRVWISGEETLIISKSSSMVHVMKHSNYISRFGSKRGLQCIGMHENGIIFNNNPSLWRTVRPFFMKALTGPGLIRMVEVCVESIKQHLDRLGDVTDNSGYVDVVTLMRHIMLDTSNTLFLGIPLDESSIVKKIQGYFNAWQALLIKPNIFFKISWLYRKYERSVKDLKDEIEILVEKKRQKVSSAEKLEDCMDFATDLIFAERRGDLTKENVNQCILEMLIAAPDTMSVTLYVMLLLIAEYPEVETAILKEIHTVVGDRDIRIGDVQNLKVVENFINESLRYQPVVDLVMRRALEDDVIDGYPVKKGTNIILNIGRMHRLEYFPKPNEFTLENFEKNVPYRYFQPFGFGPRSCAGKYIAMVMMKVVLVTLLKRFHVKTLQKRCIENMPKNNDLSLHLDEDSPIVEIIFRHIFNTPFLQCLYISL
Work on `Clc1ccc(C(c2ccc(Cl)cc2)N2CCCC2)cc1` yielded an EC50 greater than 5000 nM. In the case of `OC(c1ccc(Cl)cc1)(c1ccc(Cl)cc1)c1nnn[nH]1`, the EC50 is reported as greater than 5000 nM. `OC(c1ccc(Cl)cc1)(c1ccc(Cl)cc1)c1ccccn1` showed an EC50 greater than 5000 nM. In the case of `Clc1ccc(C(c2ccc(Cl)cc2)c2ccccn2)cc1`, the EC50 is reported as greater than 5000 nM. Compound `Clc1ccc(C(c2ccc(Cl)cc2)(c2cncs2)n2ccnc2)cc1` has an EC50 of 17 nM. `Clc1ccc(C(c2ccc(Cl)cc2)n2nccn2)cc1` was tested, and the EC50 was greater than 5000 nM. `COc1ccc(C(O)(c2ccc(OC)cc2)c2cccnc2)cc1` gave an EC50 greater than 2000 nM. Work on `OC(c1ccccc1)(c1ccc(Cl)cc1)c1cccnc1` (stereo not given) yielded an EC50 greater than 2000 nM. Compound `Clc1ccc(C(c2ccc(Cl)cc2)n2cccn2)cc1` has an EC50 greater than 2000 nM. In the case of `OC(c1ccccc1)(c1cccnc1)c1ccc(Cl)cc1Cl` (stereo not given), the EC50 is reported as greater than 2000 nM. `OC(c1ccc(Cl)cc1)(c1ccc(Cl)cc1)c1cncs1` showed an EC50 of 9.6 nM. In the case of `Clc1ccc(C(c2ccc(Cl)cc2)N2CCCCC2)cc1`, the EC50 is reported as greater than 5000 nM. Compound `OC(c1ccc(Cl)cc1)(c1cccnc1)c1ccccc1Cl` (stereo not given) has an EC50 greater than 2000 nM. With `Clc1ccc(C(c2ccc(Cl)cc2)c2ccc[nH]2)cc1` the EC50 was greater than 5000 nM. Work on `OC(c1ccc(Cl)cc1)(c1ccc(Cl)cc1)C1CCCNC1` (stereo not given) yielded an EC50 greater than 5000 nM.

— ChEMBL document CHEMBL1124961, “Estrogen synthetase inhibitors. 2. Comparison of the in vitro aromatase inhibitory activity for a variety of nitrogen heterocycles substituted with diarylmethane or diarylmethanol groups” (J Med Chem, 1990)
